# Data as given in PubChem BioAssay AID1259308 (NCATS, 2017)
# Assay: 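Knock-downs that increase output of a recombinant reporter protein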 (primary screen)
# Cells: human HEK293 embryonic kidney cells stably expressing firefly luciferase (HEK-CMV-Luc2-Hygro)
# Reagents: single siRNA against human genes, 0.8 pmol siRNA per well
# Time to read-out: 72 h
# Read-out: 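Reporter luminescence and viable-cell signal on separate replicate plates, given as percent of non-targeting control and median/MAD z-scores, plus per-cell luciferase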
# Scale: total luciferase, z-score and total luciferase, % of control: higher = more reporter protein produced; luciferase per cell, z-score: higher = more reporter output per viable cell; viable cells, % of control: higher = more viable cells
# Active means: 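An siRNA counts as active if its total luciferase robust z-score exceeds 3; genes with two or more such siRNAs out of three were retested with fresh siRNAs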
# Meaning of the calls: active = raised luciferase; inactive = no rise
# The deposit covers about 59,000 reagents; shown is an unselected part. In the full data, about 1,510 (2.6%) were called active. 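Calls use total luciferase alone and ignore viability, so some active siRNAs may act by altering cell number.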 Unmarked entries are inactive. Reagent sequences are not shown.
Gene,PubChem SID,"total luciferase, z-score","total luciferase, % of control","luciferase per cell, z-score","viable cells, % of control"
ARPP21 (cAMP regulated phosphoprotein 21),SID160729197,0.929,100,0.0265,111
ARPP21 (cAMP regulated phosphoprotein 21),SID160729198,1.75,117,1.49,88
ARPP21 (cAMP regulated phosphoprotein 21),SID160732293,3.05 (active),142,2.48,83
"AGAP11 (ArfGAP with GTPase domain, ankyrin repeat and PH domain 11)",SID160755703,-0.245,77,-0.366,94.8
"AGAP11 (ArfGAP with GTPase domain, ankyrin repeat and PH domain 11)",SID160755704,0.471,91.3,0.0582,100
"AGAP11 (ArfGAP with GTPase domain, ankyrin repeat and PH domain 11)",SID160755706,0.867,99.1,1.07,83.6
LOC642677 (stabilizer of axonemal microtubules 2 pseudogene),SID160768674,0.685,95.5,0.458,94.6
LOC642677 (stabilizer of axonemal microtubules 2 pseudogene),SID160768675,2.43,130,0.676,122
LOC642677 (stabilizer of axonemal microtubules 2 pseudogene),SID160768676,-0.681,68.3,-0.298,82.6
MAGEC2 (MAGE family member C2),SID160740810,1.07,103,0.318,106
MAGEC2 (MAGE family member C2),SID160740811,-0.186,78.2,0.562,75.4
MAGEC2 (MAGE family member C2),SID160740813,1.57,113,0.854,101
PVR (PVR cell adhesion molecule),SID160715457,-2.3,36.2,-2.13,70.8
PVR (PVR cell adhesion molecule),SID160715458,-0.096,80,-0.337,97.7
PVR (PVR cell adhesion molecule),SID160715459,-0.0843,80.2,-0.695,108
ARL4D (ARF like GTPase 4D),SID160719601,1.61,114,1.49,86
ARL4D (ARF like GTPase 4D),SID160719611,-0.298,76,-0.486,96.5
ARL4D (ARF like GTPase 4D),SID160719622,0.346,88.8,-0.0749,101
STK32A (serine/threonine kinase 32A),SID160761066,0.238,86.6,-0.03,97.6
STK32A (serine/threonine kinase 32A),SID160761067,0.174,85.3,0.786,77.5
STK32A (serine/threonine kinase 32A),SID160761068,0.807,97.9,1.33,77.1
ARSA (arylsulfatase A),SID160723662,-0.433,73.3,-0.411,91.2
ARSA (arylsulfatase A),SID160723663,-0.0876,80.1,0.00721,89.4
ARSA (arylsulfatase A),SID160731214,2.04,122,2.86,64.4
ENOSF1 (enolase superfamily member 1),SID160743792,-0.828,65.4,-0.762,89.3
ENOSF1 (enolase superfamily member 1),SID160743793,1.18,105,1.79,73.6
ENOSF1 (enolase superfamily member 1),SID160743794,0.509,92,0.823,82.8
CADPS2 (calcium dependent secretion activator 2),SID160754549,0.0235,82.4,-0.194,96.8
CADPS2 (calcium dependent secretion activator 2),SID160754550,-0.557,70.8,0.266,73.8
CADPS2 (calcium dependent secretion activator 2),SID160754551,2.11,124,2.43,73.1
TDRD6 (tudor domain containing 6),SID160761675,-0.0763,80.4,-0.551,104
TDRD6 (tudor domain containing 6),SID160761676,-0.11,79.7,-0.183,93.5
TDRD6 (tudor domain containing 6),SID160761677,-0.193,78.1,-0.168,91.2
TCEAL9 (transcription elongation factor A like 9),SID160740274,-1.07,60.5,-0.692,81.2
TCEAL9 (transcription elongation factor A like 9),SID160740275,0.308,88,-0.0233,98.9
TCEAL9 (transcription elongation factor A like 9),SID160740276,0.831,98.4,2.17,62
VSIG8 (V-set and immunoglobulin domain containing 8),SID160733268,2.95,141,1.23,114
VSIG8 (V-set and immunoglobulin domain containing 8),SID160766643,-0.504,71.9,-0.634,94.9
VSIG8 (V-set and immunoglobulin domain containing 8),SID160766644,3.87 (active),159,3.24,75.6
LENG1 (leukocyte receptor cluster member 1),SID160748729,-0.546,71,-0.529,91.2
LENG1 (leukocyte receptor cluster member 1),SID160748730,0.0233,82.4,-0.153,95.8
LENG1 (leukocyte receptor cluster member 1),SID160748732,2.98,141,2.59,79.8
ANGPTL6 (angiopoietin like 6),SID160751432,-0.457,72.8,-0.399,90.4
ANGPTL6 (angiopoietin like 6),SID160751433,0.858,98.9,0.359,101
ANGPTL6 (angiopoietin like 6),SID160751434,-1.59,50.3,-0.85,70.4
SLC38A7,SID160743313,-0.299,75.9,-0.192,89.3
SLC38A7,SID160743314,1.39,110,1.11,91.4
SLC38A7,SID160743315,-0.121,79.5,-0.333,97
"MAL2 (mal, T cell differentiation protein 2)",SID160754928,1.23,106,1.98,70.6
"MAL2 (mal, T cell differentiation protein 2)",SID160754929,5.62 (active),194,3.55,84.9
"MAL2 (mal, T cell differentiation protein 2)",SID160754930,-0.741,67.2,-1.19,103
GLRX2 (glutaredoxin 2),SID160739875,-0.121,79.5,-0.0258,89.4
GLRX2 (glutaredoxin 2),SID160739877,-1.24,57.2,-1.06,84.6
GLRX2 (glutaredoxin 2),SID160739878,-0.657,68.8,0.0946,75
APBB1 (amyloid beta precursor protein binding family B member 1),SID160718209,0.785,97.5,0.39,98.3
APBB1 (amyloid beta precursor protein binding family B member 1),SID160718218,-0.6,69.9,-0.732,94.8
APBB1 (amyloid beta precursor protein binding family B member 1),SID160718228,0.834,98.5,0.724,90.9

In a second layout: entries from further up.
{"Gene":"STK32A (serine/threonine kinase 32A)","PubChem SID":"SID160761067","total luciferase, z-score":0.174,"total luciferase, % of control":85.3,"luciferase per cell, z-score":0.786,"viable cells, % of control":77.5}
{"Gene":"STK32A (serine/threonine kinase 32A)","PubChem SID":"SID160761068","total luciferase, z-score":0.807,"total luciferase, % of control":97.9,"luciferase per cell, z-score":1.33,"viable cells, % of control":77.1}
{"Gene":"ARSA (arylsulfatase A)","PubChem SID":"SID160723662","total luciferase, z-score":-0.433,"total luciferase, % of control":73.3,"luciferase per cell, z-score":-0.411,"viable cells, % of control":91.2}
{"Gene":"ARSA (arylsulfatase A)","PubChem SID":"SID160723663","total luciferase, z-score":-0.0876,"total luciferase, % of control":80.1,"luciferase per cell, z-score":0.00721,"viable cells, % of control":89.4}
{"Gene":"ARSA (arylsulfatase A)","PubChem SID":"SID160731214","total luciferase, z-score":2.04,"total luciferase, % of control":122,"luciferase per cell, z-score":2.86,"viable cells, % of control":64.4}
{"Gene":"ENOSF1 (enolase superfamily member 1)","PubChem SID":"SID160743792","total luciferase, z-score":-0.828,"total luciferase, % of control":65.4,"luciferase per cell, z-score":-0.762,"viable cells, % of control":89.3}
{"Gene":"ENOSF1 (enolase superfamily member 1)","PubChem SID":"SID160743793","total luciferase, z-score":1.18,"total luciferase, % of control":105,"luciferase per cell, z-score":1.79,"viable cells, % of control":73.6}
{"Gene":"ENOSF1 (enolase superfamily member 1)","PubChem SID":"SID160743794","total luciferase, z-score":0.509,"total luciferase, % of control":92,"luciferase per cell, z-score":0.823,"viable cells, % of control":82.8}
